Paper PMC6801465

Biological target: LDL-R (low-density lipoprotein receptor), negative control (UniProt P01130)
Assay: ELONA
Details: Binding buffer: serum-free DMEM + 100 ug/mL tRNA, aptamers denatured 95 C 5 min, snap cooled on ice 10 min, ELONA 1 h (temperature not given), label: 5'-biotin (ELONA); for binding result: 100 nM aptamer

Question: How did the Kd (2'-F on all C and U, A and G are RNA, synthetic backbone) turn out when “GCCUUAGUAACGUGCUUUGAUGUCGAUUCGACAGGAGGC [CL-4]” was run?
Answer: > 1000 nM

Question: Does “TGCTTTGATGTCGATTCGACAGGAGGC [CL-4RNV618]” bind (none (all DNA), folded or branched DNA)?
Answer: no binding

Question: Does “UGCUUUGAUGUCGAUUCGACAGGAGGC [CL-4RNV615]” bind (all 2'-OMe, synthetic backbone)?
Answer: no binding

Question: With “UGCUUUGAUGUCGAUUCGACAGGAGGC [CL-4RNV616]” as the sequence, how does the Kd (2'-OMe on U, G, C, all A (positions 8, 14, 19, 21, 24) are DNA, 5'-FAM (cells), synthetic backbone) read?
Answer: > 1000 nM

Question: Does “UGCUUUGAUGUCGAUUCGACAGGAGGC [CL-4RNV617]” bind (none (all RNA))?
Answer: no binding

Construct, isoform or probe ends are uncertain for at least one entry. A negative result means that nothing was seen under these conditions. At least one verdict was read from the data and is not stated in words by the source.
